Reference: the supplement of paper PMC10849652
The other results are listed elsewhere or left out.

Chains of the proteins cited; added tags and fusions are not shown. Lines headed by an entry give the natural chain unless they say otherwise; changes in a name come on top.
UniProt Q3LIE5: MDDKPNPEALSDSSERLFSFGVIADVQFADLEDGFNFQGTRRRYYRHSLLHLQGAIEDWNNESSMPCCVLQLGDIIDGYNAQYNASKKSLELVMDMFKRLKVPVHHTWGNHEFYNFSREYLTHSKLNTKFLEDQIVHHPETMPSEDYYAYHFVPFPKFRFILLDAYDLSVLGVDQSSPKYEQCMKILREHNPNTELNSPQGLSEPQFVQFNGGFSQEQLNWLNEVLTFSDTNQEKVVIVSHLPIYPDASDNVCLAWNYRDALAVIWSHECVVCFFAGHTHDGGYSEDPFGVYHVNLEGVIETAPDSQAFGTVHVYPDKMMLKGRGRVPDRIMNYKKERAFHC
UniProt Q8N157: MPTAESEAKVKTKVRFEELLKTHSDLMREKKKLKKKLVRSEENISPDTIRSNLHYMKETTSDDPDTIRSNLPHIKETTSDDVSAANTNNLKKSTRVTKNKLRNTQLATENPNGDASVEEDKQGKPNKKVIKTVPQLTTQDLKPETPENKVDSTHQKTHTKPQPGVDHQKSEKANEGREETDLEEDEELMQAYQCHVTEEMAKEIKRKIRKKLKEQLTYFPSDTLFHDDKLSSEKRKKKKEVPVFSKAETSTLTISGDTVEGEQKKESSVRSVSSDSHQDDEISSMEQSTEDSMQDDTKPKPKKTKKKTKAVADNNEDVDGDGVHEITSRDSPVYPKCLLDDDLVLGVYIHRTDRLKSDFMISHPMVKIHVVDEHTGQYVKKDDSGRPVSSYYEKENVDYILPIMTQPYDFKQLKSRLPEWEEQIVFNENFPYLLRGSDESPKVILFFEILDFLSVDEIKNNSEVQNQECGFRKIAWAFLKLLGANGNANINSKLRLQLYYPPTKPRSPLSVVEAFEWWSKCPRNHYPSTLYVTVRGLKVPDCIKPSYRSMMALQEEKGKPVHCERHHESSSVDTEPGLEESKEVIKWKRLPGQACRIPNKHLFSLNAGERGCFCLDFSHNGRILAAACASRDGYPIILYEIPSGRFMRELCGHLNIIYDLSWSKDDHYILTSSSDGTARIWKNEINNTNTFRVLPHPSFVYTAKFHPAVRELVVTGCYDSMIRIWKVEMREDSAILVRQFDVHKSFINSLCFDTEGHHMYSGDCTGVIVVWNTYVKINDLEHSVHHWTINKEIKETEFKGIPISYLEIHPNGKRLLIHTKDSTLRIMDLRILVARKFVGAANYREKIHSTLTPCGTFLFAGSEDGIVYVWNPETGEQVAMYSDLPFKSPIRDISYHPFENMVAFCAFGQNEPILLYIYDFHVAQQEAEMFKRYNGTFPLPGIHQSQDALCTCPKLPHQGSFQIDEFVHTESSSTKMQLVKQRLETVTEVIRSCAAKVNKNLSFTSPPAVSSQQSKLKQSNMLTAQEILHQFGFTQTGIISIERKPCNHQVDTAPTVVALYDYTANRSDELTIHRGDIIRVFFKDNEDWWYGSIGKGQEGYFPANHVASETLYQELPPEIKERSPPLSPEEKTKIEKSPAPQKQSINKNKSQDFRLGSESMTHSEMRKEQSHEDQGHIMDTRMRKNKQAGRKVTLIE
UniProt P30520: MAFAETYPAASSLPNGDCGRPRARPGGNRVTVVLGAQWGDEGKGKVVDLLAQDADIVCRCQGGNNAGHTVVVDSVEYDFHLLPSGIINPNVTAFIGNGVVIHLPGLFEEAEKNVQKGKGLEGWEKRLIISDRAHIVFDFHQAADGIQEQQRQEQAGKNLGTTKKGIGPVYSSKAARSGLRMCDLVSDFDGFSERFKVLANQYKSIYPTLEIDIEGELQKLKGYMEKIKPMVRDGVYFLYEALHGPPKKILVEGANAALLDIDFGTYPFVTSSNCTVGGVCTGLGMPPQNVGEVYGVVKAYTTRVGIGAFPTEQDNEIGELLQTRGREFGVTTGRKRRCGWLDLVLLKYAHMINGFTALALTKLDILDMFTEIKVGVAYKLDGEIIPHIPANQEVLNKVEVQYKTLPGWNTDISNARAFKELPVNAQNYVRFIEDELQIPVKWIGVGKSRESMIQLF
UniProt P20933: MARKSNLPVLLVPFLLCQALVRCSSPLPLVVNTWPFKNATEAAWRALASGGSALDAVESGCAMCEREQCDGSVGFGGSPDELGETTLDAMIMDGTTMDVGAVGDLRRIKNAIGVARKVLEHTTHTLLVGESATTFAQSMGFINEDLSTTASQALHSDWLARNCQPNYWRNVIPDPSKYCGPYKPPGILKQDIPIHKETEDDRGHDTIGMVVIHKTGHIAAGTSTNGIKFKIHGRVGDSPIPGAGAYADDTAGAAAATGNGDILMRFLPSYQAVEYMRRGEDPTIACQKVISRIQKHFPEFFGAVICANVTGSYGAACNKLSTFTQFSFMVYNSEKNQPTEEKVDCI
UniProt Q9NZD4: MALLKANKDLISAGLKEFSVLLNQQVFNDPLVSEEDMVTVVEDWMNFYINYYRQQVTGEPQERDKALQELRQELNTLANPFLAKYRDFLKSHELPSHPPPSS
UniProt Q04828: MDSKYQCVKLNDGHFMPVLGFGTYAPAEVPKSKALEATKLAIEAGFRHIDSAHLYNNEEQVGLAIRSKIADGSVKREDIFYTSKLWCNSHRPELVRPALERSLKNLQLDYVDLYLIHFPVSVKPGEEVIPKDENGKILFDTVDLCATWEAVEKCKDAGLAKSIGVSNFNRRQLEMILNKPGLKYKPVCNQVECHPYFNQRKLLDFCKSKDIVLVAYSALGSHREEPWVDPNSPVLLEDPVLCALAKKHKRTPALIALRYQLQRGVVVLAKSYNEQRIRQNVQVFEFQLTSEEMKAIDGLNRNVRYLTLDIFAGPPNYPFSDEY
UniProt O60218, whole entry, looked up: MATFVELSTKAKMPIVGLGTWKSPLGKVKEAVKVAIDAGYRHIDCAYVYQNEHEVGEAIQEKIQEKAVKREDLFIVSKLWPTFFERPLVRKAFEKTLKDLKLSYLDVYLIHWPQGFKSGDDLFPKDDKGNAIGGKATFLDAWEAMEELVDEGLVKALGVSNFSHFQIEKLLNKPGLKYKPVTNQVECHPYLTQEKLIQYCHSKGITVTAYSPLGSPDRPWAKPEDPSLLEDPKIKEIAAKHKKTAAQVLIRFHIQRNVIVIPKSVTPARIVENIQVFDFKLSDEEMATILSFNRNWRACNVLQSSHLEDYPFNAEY
UniProt Q9BQI0: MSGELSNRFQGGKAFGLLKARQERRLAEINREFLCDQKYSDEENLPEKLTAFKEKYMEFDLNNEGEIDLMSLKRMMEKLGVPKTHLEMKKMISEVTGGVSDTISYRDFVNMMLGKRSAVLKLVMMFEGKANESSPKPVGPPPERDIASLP
UniProt P51828: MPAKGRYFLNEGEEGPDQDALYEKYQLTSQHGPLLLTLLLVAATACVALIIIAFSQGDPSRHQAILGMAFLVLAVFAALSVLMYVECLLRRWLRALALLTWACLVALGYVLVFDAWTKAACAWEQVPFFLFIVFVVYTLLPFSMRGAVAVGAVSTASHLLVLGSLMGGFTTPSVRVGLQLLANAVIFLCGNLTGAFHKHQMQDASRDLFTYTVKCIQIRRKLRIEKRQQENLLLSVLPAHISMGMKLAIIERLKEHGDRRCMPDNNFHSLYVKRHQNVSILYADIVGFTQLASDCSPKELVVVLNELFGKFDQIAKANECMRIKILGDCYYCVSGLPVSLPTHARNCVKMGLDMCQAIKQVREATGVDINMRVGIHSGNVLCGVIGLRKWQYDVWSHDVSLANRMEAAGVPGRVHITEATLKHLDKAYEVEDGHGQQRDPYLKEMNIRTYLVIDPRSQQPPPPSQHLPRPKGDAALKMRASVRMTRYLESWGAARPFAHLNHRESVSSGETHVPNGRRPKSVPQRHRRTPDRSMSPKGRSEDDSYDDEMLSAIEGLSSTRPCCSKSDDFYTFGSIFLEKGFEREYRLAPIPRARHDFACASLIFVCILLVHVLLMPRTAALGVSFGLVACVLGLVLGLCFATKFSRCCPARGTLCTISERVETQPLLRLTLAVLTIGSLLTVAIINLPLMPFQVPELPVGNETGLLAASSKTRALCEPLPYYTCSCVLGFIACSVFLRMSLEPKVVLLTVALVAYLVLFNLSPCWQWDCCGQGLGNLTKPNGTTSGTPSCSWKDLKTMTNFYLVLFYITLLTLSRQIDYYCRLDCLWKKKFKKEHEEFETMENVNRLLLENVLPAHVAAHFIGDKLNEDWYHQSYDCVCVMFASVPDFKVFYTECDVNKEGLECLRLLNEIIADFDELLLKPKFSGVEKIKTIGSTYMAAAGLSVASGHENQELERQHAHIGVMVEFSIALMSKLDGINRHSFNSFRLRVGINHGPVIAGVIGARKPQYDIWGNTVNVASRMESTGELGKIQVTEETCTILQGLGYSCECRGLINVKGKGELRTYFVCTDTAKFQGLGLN
UniProt Q13444: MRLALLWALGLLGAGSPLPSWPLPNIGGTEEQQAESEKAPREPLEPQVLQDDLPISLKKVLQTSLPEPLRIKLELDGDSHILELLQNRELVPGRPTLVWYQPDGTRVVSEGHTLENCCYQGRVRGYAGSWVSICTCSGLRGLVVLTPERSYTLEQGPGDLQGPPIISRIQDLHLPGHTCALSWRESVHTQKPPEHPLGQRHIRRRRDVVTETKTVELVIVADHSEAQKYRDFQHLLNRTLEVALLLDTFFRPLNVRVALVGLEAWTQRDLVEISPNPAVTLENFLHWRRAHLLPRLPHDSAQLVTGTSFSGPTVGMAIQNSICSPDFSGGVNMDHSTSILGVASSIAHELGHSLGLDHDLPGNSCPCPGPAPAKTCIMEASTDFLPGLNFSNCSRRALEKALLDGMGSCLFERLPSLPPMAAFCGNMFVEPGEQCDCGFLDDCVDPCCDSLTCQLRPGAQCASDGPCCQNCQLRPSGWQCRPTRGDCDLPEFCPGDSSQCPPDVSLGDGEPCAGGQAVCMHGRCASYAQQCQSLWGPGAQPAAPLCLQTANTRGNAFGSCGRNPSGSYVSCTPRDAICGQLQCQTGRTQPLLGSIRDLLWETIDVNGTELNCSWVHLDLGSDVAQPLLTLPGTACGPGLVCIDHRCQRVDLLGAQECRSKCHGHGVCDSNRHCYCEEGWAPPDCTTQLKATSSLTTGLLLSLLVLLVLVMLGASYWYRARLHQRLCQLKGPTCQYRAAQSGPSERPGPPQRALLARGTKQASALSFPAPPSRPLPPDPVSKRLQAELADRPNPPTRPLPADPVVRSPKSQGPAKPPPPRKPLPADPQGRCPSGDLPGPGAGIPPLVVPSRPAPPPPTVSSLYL
UniProt Q02040: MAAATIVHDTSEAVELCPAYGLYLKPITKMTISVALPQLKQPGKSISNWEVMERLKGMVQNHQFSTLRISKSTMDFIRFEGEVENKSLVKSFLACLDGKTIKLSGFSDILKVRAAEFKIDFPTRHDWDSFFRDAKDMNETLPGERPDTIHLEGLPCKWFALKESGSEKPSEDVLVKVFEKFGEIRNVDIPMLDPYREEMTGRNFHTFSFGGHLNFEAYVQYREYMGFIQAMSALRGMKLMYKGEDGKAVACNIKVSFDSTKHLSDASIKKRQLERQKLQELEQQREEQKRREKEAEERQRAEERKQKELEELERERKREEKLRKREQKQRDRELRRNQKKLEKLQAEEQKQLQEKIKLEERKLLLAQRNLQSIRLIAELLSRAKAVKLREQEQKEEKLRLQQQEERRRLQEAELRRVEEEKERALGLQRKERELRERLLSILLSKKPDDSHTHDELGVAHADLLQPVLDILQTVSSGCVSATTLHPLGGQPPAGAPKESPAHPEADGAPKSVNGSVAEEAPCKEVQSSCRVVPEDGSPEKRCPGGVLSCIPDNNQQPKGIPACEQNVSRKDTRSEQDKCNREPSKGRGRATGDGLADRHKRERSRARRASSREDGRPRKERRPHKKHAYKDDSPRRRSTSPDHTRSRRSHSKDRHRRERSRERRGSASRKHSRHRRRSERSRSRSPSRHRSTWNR
UniProt Q9UKU0: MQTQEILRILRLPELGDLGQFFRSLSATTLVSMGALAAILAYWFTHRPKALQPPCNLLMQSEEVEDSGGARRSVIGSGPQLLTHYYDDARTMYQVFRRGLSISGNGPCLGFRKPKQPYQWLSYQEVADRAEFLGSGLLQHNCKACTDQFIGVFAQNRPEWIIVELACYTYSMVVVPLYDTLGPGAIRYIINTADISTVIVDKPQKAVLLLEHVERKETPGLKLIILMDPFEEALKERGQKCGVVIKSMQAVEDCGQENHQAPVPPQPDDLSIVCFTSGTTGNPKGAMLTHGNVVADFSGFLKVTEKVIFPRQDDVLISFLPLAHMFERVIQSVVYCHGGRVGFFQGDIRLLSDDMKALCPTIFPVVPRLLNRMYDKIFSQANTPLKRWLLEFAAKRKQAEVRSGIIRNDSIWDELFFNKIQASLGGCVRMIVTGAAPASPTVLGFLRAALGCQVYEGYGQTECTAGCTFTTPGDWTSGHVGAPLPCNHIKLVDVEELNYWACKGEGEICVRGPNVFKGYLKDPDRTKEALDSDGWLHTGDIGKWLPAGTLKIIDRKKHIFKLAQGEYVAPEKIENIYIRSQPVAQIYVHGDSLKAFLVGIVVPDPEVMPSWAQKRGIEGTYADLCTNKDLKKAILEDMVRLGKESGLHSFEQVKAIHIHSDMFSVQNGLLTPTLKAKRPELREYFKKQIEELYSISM

Legend:
Assay in all cases: log2 fold change, soluble protein after heating vs DMSO (PISA); higher = thermal stabilisation; K562 lysate, 10 uM; active = over 0.2 and 3.5 SD of the protein, either way, in both replicates (recomputed)
vemurafenib = compound: CCCS(=O)(=O)Nc1ccc(F)c(C(=O)c2c[nH]c3ncc(-c4ccc(Cl)cc4)cc23)c1F [vemurafenib]
Outline: (§1)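 A 30 min treatment with 10 μM compound was applied to crude K562 extract at 1 mg/mL protein in PBS pH 7.4 with 1 mM MgCl2. Heating for 3 min spanned 48°C-58°C, after which aliquots were pooled, adjusted to 0.5% NP-40 at 4°C and spun at 21,000xg for 90 min. TMTpro 16plex LC-MS/MS of the supernatant, with channel sums equalised, gave values recorded as log-two fold change in thermal stability against solvent controls, from duplicates.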

[1] = compound: CCCS(=O)(=O)Nc1ccc(F)c(C(=O)c2c[nH]c3ncc(Cl)cc23)c1F
Outline: as §1

[2] = compound: CC[C@@H]1C(=O)N(C)c2cnc(Nc3ccc(C(=O)NC4CCN(C)CC4)cc3OC)nc2N1C1CCCC1
Outline: as §1

volasertib = compound: CC[C@@H]1C(=O)N(C)c2cnc(Nc3ccc(C(=O)N[C@H]4CC[C@H](N5CCN(CC6CC6)CC5)CC4)cc3OC)nc2N1C(C)C [volasertib]
Outline: as §1

[3] = compound: CCn1c(C(=O)N(C2CC2)C2CC2)cc2c3c(ncn3C)c(Nc3cc(C)n(C)n3)nc21
Outline: as §1

saracatinib = compound: CN1CCN(CCOc2cc(OC3CCOCC3)c3c(Nc4c(Cl)ccc5c4OCO5)ncnc3c2)CC1 [saracatinib]
Outline: as §1

barasertib = compound: CCN(CCCOc1ccc2c(Nc3cc(CC(=O)Nc4cccc(F)c4)[nH]n3)ncnc2c1)CCOP(=O)(O)O [barasertib]
Outline: as §1

[4] = compound: CCn1cc(-c2ccnc3[nH]c(-c4cccc(CN(C)C)c4)cc23)c(-c2ccc(NC(=O)N(C)C)cc2)n1
Outline: as §1

[5] = compound: CN1CCC(CNc2ccc3ncc(-c4cccc(OC(F)(F)F)c4)n3n2)CC1
Outline: as §1

sotrastaurin = compound: CN1CCN(c2nc(C3=C(c4c[nH]c5ccccc45)C(=O)NC3=O)c3ccccc3n2)CC1 [sotrastaurin]
Outline: as §1

Measured: log2 fold change

ADAD1 (UniProt Q96M93)
inactive: vemurafenib -0.06 | [1] -0.023 | [2] -0.066 | volasertib 0.013 | [3] -0.067 | saracatinib -0.026

ADPRM (UniProt Q3LIE5)
inactive: vemurafenib 0.093 | barasertib 0.172 | [2] 0.068 | [3] -0.096 | [4] -0.109 | [5] 0.134 | sotrastaurin -0.384

AHI1 (UniProt Q8N157)
inactive: vemurafenib 0.083 | [2] -0.034

ACTB, A0A2R8YEA7
inactive: vemurafenib 0.134 | [1] 0.047 | volasertib -0.119 | [4] -0.232 | [5] -0.022

AKIRIN2 (UniProt Q53H80)
inactive: vemurafenib 0.01 | [1] -0.01 | [2] -0.057 | volasertib -0.015 | [3] -0.15 | [4] 0.038 | [5] -0.02 | saracatinib 0.056 | sotrastaurin 0.009

ADSS2 (UniProt P30520)
inactive: vemurafenib -0.014 | [1] 0 | barasertib 0 | [2] 0 | volasertib 0.015 | [3] -0.022 | [4] -0.063 | [5] 0.065 | saracatinib -0.012 | sotrastaurin -0.022

AGA (UniProt P20933)
inactive: vemurafenib 0.058 | [1] -0.014 | [2] 0.076 | volasertib 0.103 | [3] -0.064 | sotrastaurin 0.084

AGGF1 (UniProt Q8N302)
active: [4] -0.43
inactive: vemurafenib 0.112 | [1] -0.043 | barasertib 0.115 | [2] 0.084 | volasertib -0.06 | [3] 0.001 | [5] 0.175 | sotrastaurin 0.025

AHSP (UniProt Q9NZD4)
inactive: vemurafenib 0.033 | [1] -0.107 | barasertib 0.078 | [2] 0.008 | volasertib 0.11 | [4] 0.178 | [5] -0.15

AK5 (UniProt Q9Y6K8)
inactive: vemurafenib -0.019 | [1] 0.057 | barasertib -0.015 | [2] 0.035 | volasertib -0.041 | [3] 0.017 | saracatinib 0.047 | sotrastaurin -0.035

ACTB, A0A2R8YGF8
inactive: vemurafenib 0.962 | barasertib 2.23 | [4] 2.24 | [5] 0.36

AGPAT2 (UniProt O15120)
active: vemurafenib 0.33
inactive: [2] 0.108 | [3] 0.002 | [4] -0.034 | [5] 0.023 | sotrastaurin 0

AGFG2 (UniProt O95081)
inactive: vemurafenib 0.072 | [1] -0.199 | [2] -0.001 | volasertib -0.201 | [3] 0.007 | saracatinib 0.126 | sotrastaurin 0.043

AKR1C1 (UniProt Q04828)
inactive: vemurafenib 0.046 | [1] -0.011 | [2] -0.036 | volasertib 0.091 | [3] -0.037 | [4] 0.076 | [5] -0.485 | saracatinib 0.138

AKAP10 (UniProt O43572)
inactive: [1] 0.197 | barasertib 0.141 | [2] 0.035 | volasertib -0.128 | [3] 0.31 | saracatinib 0.022 | sotrastaurin 0.052

ACTB (UniProt C9JUM1)
inactive: [1] 0.054 | barasertib 0.143 | volasertib -0.043

AJUBA (UniProt Q96IF1)
inactive: saracatinib 0.005 | sotrastaurin -0.102

Taken from the entries so far (two entries):
AKAP10 (UniProt O43572)
inactive: [1] 0.197 | barasertib 0.141 | [2] 0.035 | volasertib -0.128 | [3] 0.31 | saracatinib 0.022 | sotrastaurin 0.052

ACTB (UniProt C9JUM1)
inactive: [1] 0.054 | barasertib 0.143 | volasertib -0.043

Later entries

AKR1B10 (UniProt O60218)
inactive: [3] -0.588 | saracatinib 1.84

AHDC1 (UniProt Q5TGY3)
inactive: barasertib -0.268

AGTRAP isoform 2 (UniProt Q6RW13)
inactive: [1] 0.064 | barasertib 0.088 | volasertib -0.029 | [4] -0.2 | [5] 0.174

AKR7L (UniProt Q8NHP1)
inactive: [1] 0.029 | volasertib -0.026 | saracatinib 0.036 | sotrastaurin 0.041

AIF1L (UniProt Q9BQI0)
inactive: [1] 0.049 | barasertib 0.009 | [2] -0.101 | volasertib -0.086 | [3] 0.091 | [4] 0.153 | [5] -0.117 | saracatinib 0.13 | sotrastaurin 0.115

AGO2 (UniProt E5RJY2)
inactive: [1] 0.082 | volasertib -0.005 | [4] 0.51 | [5] -0.054

ACTR8 (UniProt Q9H981)
inactive: [1] 0.046 | [2] -0.106 | volasertib -0.017 | [3] 0.038 | saracatinib -0.022

ADCY3 (UniProt O60266)
inactive: [3] 0.004 | saracatinib 0.035

AGPAT4 (UniProt Q9NRZ5)
inactive: barasertib 0.039 | [2] -0.085 | [3] -0.045 | [4] -0.255 | [5] -0.057 | sotrastaurin 0.023

ACTN4 (UniProt K7EJH8)
inactive: [1] 0.043 | barasertib 0.041 | [2] 0.091 | volasertib 0.015 | [3] -0.063 | [4] -0.038 | [5] 0.091 | saracatinib 0.06 | sotrastaurin 0.029

ADD3 isoform 2 (UniProt Q9UEY8)
inactive: sotrastaurin 0.038

ACSL5 isoform 3 (UniProt Q9ULC5)
inactive: [1] 0.038 | barasertib 0.115 | volasertib -0.045 | [3] 0.004 | [4] 0.058 | [5] -0.318 | saracatinib 0.007 | sotrastaurin -0.018

ADCY7 (UniProt P51828)
inactive: saracatinib -0.12

ACOX3 (UniProt O15254)
inactive: barasertib -0.13 | [2] 0 | saracatinib 0.054

AFDN (UniProt H0Y948)
inactive: sotrastaurin -0.136

AIMP2 isoform 2 (UniProt Q13155)
inactive: [1] -0.134 | barasertib 0.038 | volasertib 0.047 | [3] -0.027 | sotrastaurin 0.014

ACTN4 (UniProt H7C144)
inactive: [3] 0.003 | saracatinib 0.019

ADAM15 (UniProt Q13444)
inactive: [1] 0.067 | barasertib -0.121 | volasertib 0.049 | [3] -0.013 | [4] -0.052 | [5] 0.081 | saracatinib 0.009 | sotrastaurin -0.065

AHCTF1 isoform 2 (UniProt Q8WYP5)
inactive: [1] 0.063 | volasertib -0.043 | [3] 0.127 | [4] 0.001 | [5] 0.111

ADCK5 (UniProt Q3MIX3)
inactive: [1] 0.111 | [2] -0.008 | volasertib -0.039 | saracatinib 0.141 | sotrastaurin 0.056

ADAT1 (UniProt Q9BUB4)
inactive: barasertib 0.094

ADK, A0A5F9ZH76
inactive: [1] -0.174 | barasertib -0.019 | volasertib 0.167

AFG1L (UniProt Q8WV93)
inactive: [1] -0.021 | [2] -0.132 | volasertib -0.01 | [3] 0.013 | saracatinib 0.028 | sotrastaurin 0.059

AFAP1L1 (UniProt Q8TED9)
inactive: [1] 0.116 | barasertib 0.113 | [2] 0.158 | volasertib 0.06 | saracatinib -0.035 | sotrastaurin 0.086

AEBP2 (UniProt Q6ZN18)
inactive: [1] 0.098 | barasertib 0.184 | volasertib 0.029 | [3] -0.044 | saracatinib 0.021 | sotrastaurin 0.114

AKAP17A (UniProt Q02040)
inactive: [1] 0.29 | volasertib -0.163 | [3] -0.01 | saracatinib -0.094 | sotrastaurin 0.016

ACSS3 (UniProt Q9H6R3)
inactive: barasertib -0.067

ACTG1 (UniProt K7EM38)
inactive: [1] -0.259 | [2] -0.208 | volasertib -0.124

ACVR1 (UniProt Q04771)
inactive: barasertib -0.115 | [4] -0.244
active: [5] 0.815

ADAMTSL4 isoform 3 (UniProt Q6UY14)
inactive: [1] 0.001 | barasertib 0.096 | volasertib 0 | [3] -0.073 | [4] -0.094 | [5] -0.088 | saracatinib -0.062 | sotrastaurin 0.031

ACSL6 isoform 1 (UniProt Q9UKU0)
inactive: [1] 0.012 | barasertib 0.025 | volasertib -0.075 | [3] 0.02 | [4] 0.047 | [5] -0.321
